In the supplement of paper PMC7125110:
± gives the standard error. Many of these values have a large error.

B1: glmS ribozyme (parent)
chain: AUAAAAGCGCCAGAACUACAGAAAUGUAGUUGACGAGGAGGAGGUUUAUCGAAUUUUCGGCGGAUGCCUCCAAA

Variants of: B1
Experiment: self-cleavage kobs at 160 uM GlcN6P; higher = faster cleavage; RNA array
Conditions: with glucosamine-6-phosphate
Method in brief: (§1)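 Tracking of barcoded ribozyme variants used a hybridised Cy3 probe at 37 °C, after in situ transcription by E. coli RNA polymerase on sequenced MiSeq chips. The flowed solution held 40 μM to 10 mM glucosamine-6-phosphate in HEPES/KCl/Mg(OAc)2 buffer, and imaging ran over ~14 h. kobs was taken from exponential decay fits of normalised per-tile medians, and kcat and KM from weighted Michaelis–Menten fits.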
U30A U69G C71A was tested, and the “self-cleavage kobs at 160 uM GlcN6P” value was 4.06e-05 ± 2.3e-05 s⁻¹. In the case of U31G U45A A52G, the “self-cleavage kobs at 160 uM GlcN6P” value is reported as 2.31e-05 ± 1.8e-05 s⁻¹. With G29C G62C C68G the “self-cleavage kobs at 160 uM GlcN6P” value was 2.68e-05 ± 2.3e-05 s⁻¹. With C11U G29C the “self-cleavage kobs at 160 uM GlcN6P” value was 2.04e-05 ± 1.6e-05 s⁻¹. G29U G37A was tested, and the “self-cleavage kobs at 160 uM GlcN6P” value was 2.11e-05 ± 1.1e-05 s⁻¹. With G51U C68G the “self-cleavage kobs at 160 uM GlcN6P” value was 2.51e-05 ± 1.3e-05 s⁻¹. In the case of C16U U57A C70A, the “self-cleavage kobs at 160 uM GlcN6P” value is reported as 2.66e-05 ± 2.3e-05 s⁻¹. For A12G U56G, the “self-cleavage kobs at 160 uM GlcN6P” value was 1.62e-05 ± 9.7e-06 s⁻¹. In the case of A12U C67U, the “self-cleavage kobs at 160 uM GlcN6P” value is reported as 0.00118 ± 0.00093 s⁻¹. A12U A64U was tested, and the “self-cleavage kobs at 160 uM GlcN6P” value was 2.07e-05 ± 1e-05 s⁻¹. In the case of G41U U47G A53U, the “self-cleavage kobs at 160 uM GlcN6P” value is reported as 2.45e-05 ± 1.6e-05 s⁻¹. U30G U56A C68G was tested, and the “self-cleavage kobs at 160 uM GlcN6P” value was 3.46e-05 ± 2.3e-05 s⁻¹. For G29U U49A U57C C70G, the “self-cleavage kobs at 160 uM GlcN6P” value was 6.44e-05 ± 3.6e-05 s⁻¹. G37A C50G was tested, and the “self-cleavage kobs at 160 uM GlcN6P” value was 2.23e-05 ± 2.1e-05 s⁻¹. For A53U U65C, the “self-cleavage kobs at 160 uM GlcN6P” value was 1.75e-05 ± 1.6e-05 s⁻¹. With C50A C58U C67G the “self-cleavage kobs at 160 uM GlcN6P” value was 3.86e-05 ± 1.9e-05 s⁻¹. A12G U45G U54G was tested, and the “self-cleavage kobs at 160 uM GlcN6P” value was 1.42e-05 ± 1.2e-05 s⁻¹. In the case of A64G U69G, the “self-cleavage kobs at 160 uM GlcN6P” value is reported as 2.38e-05 ± 1.5e-05 s⁻¹. In the case of A12G C70G, the “self-cleavage kobs at 160 uM GlcN6P” value is reported as 2e-05 ± 1.8e-05 s⁻¹. A39C U65A was tested, and the “self-cleavage kobs at 160 uM GlcN6P” value was 1.43e-05 ± 9.7e-06 s⁻¹. In the case of C16G C71A, the “self-cleavage kobs at 160 uM GlcN6P” value is reported as 2.84e-05 ± 1.5e-05 s⁻¹. With G32A G44U C67U the “self-cleavage kobs at 160 uM GlcN6P” value was 1.85e-05 ± 1.4e-05 s⁻¹. A15U C16U U49A C70G was tested, and the “self-cleavage kobs at 160 uM GlcN6P” value was 2.45e-05 ± 1.8e-05 s⁻¹. With G41C A42G the “self-cleavage kobs at 160 uM GlcN6P” value was 1.72e-05 ± 1.6e-05 s⁻¹. With U31A C67G the “self-cleavage kobs at 160 uM GlcN6P” value was 4.89e-05 ± 2.8e-05 s⁻¹. C58G C67A was tested, and the “self-cleavage kobs at 160 uM GlcN6P” value was 3.21e-05 ± 1.7e-05 s⁻¹. With C67A U69A the “self-cleavage kobs at 160 uM GlcN6P” value was 3.93e-05 ± 2.2e-05 s⁻¹. G37A G66U was tested, and the “self-cleavage kobs at 160 uM GlcN6P” value was 2.22e-05 ± 1.5e-05 s⁻¹. With A12C C70A the “self-cleavage kobs at 160 uM GlcN6P” value was 2.38e-05 ± 2.2e-05 s⁻¹. C58U C70A was tested, and the “self-cleavage kobs at 160 uM GlcN6P” value was 1.96e-05 ± 1.8e-05 s⁻¹. For C50A C70U, the “self-cleavage kobs at 160 uM GlcN6P” value was 1.63e-05 ± 1.2e-05 s⁻¹. A12G C71G was tested, and the “self-cleavage kobs at 160 uM GlcN6P” value was 2.28e-05 ± 1.7e-05 s⁻¹. With C16U A39G A42U U47A the “self-cleavage kobs at 160 uM GlcN6P” value was 3.84e-05 ± 3.7e-05 s⁻¹. In the case of U49A C50U C67A C68G C71A, the “self-cleavage kobs at 160 uM GlcN6P” value is reported as 5.48e-05 ± 3.2e-05 s⁻¹. In the case of G35U G37C U56G, the “self-cleavage kobs at 160 uM GlcN6P” value is reported as 0.00126 ± 0.0012 s⁻¹. For A6U C70U, the “self-cleavage kobs at 160 uM GlcN6P” value was 3.03e-05 ± 1.6e-05 s⁻¹. With A53G U57A the “self-cleavage kobs at 160 uM GlcN6P” value was 2.97e-05 ± 2.7e-05 s⁻¹. With A15C U31C C68G the “self-cleavage kobs at 160 uM GlcN6P” value was 1.87e-05 ± 1.8e-05 s⁻¹. With G37C the “self-cleavage kobs at 160 uM GlcN6P” value was less than 1e-05 s⁻¹. G32U C67U was tested, and the “self-cleavage kobs at 160 uM GlcN6P” value was 1.62e-05 ± 1.5e-05 s⁻¹. In the case of A48C A53G, the “self-cleavage kobs at 160 uM GlcN6P” value is reported as 2.6e-05 ± 1.5e-05 s⁻¹. In the case of A6C C10A G32A G51A A52G A53G G59C G63U C68A, the “self-cleavage kobs at 160 uM GlcN6P” value is reported as 3.58e-05 ± 2.8e-05 s⁻¹. For G66U U69G, the “self-cleavage kobs at 160 uM GlcN6P” value was 2.8e-05 ± 2.8e-05 s⁻¹.

Variants of: B1
Experiment: self-cleavage kobs at 2500 uM GlcN6P; higher = faster cleavage; RNA array
Conditions: with glucosamine-6-phosphate
Method in brief: as §1
For A14G U31A G43U U47A C67U, the “self-cleavage kobs at 2500 uM GlcN6P” value was 3.9e-05 ± 2.8e-05 s⁻¹. In the case of C10U A33U U54C, the “self-cleavage kobs at 2500 uM GlcN6P” value is reported as 1.94e-05 ± 1e-05 s⁻¹. For A12C G13U C67U, the “self-cleavage kobs at 2500 uM GlcN6P” value was 2.82e-05 ± 2.2e-05 s⁻¹. For G13A A52U C70G, the “self-cleavage kobs at 2500 uM GlcN6P” value was 3.53e-05 ± 2.5e-05 s⁻¹. In the case of G13U C58A C68A, the “self-cleavage kobs at 2500 uM GlcN6P” value is reported as 2.75e-05 ± 2e-05 s⁻¹. In the case of A12U G37C U54C, the “self-cleavage kobs at 2500 uM GlcN6P” value is reported as 2.91e-05 ± 1.5e-05 s⁻¹. For C11U A12C U55G, the “self-cleavage kobs at 2500 uM GlcN6P” value was 2.55e-05 ± 1.8e-05 s⁻¹. For C11G G32U U47C G62U C67U C70U C71G, the “self-cleavage kobs at 2500 uM GlcN6P” value was 3.65e-05 ± 2.2e-05 s⁻¹. A12C U30A U69G was tested, and the “self-cleavage kobs at 2500 uM GlcN6P” value was 4.11e-05 ± 2.1e-05 s⁻¹. In the case of U30G U56A C68G, the “self-cleavage kobs at 2500 uM GlcN6P” value is reported as 1.71e-05 ± 1.1e-05 s⁻¹. G29U U49A U57C C70G was tested, and the “self-cleavage kobs at 2500 uM GlcN6P” value was 6.66e-05 ± 3.8e-05 s⁻¹. With A12C A36G G60C C68G C70A the “self-cleavage kobs at 2500 uM GlcN6P” value was 6.86e-05 ± 4e-05 s⁻¹. A12G U31G C58A was tested, and the “self-cleavage kobs at 2500 uM GlcN6P” value was 5.81e-05 ± 3.4e-05 s⁻¹. With A6C C50G A64U the “self-cleavage kobs at 2500 uM GlcN6P” value was 2.94e-05 ± 2.4e-05 s⁻¹. In the case of C50A C58U C67G, the “self-cleavage kobs at 2500 uM GlcN6P” value is reported as 3.87e-05 ± 2.1e-05 s⁻¹. G7A C68U was tested, and the “self-cleavage kobs at 2500 uM GlcN6P” value was 3.21e-05 ± 1.8e-05 s⁻¹. For G7A C50G, the “self-cleavage kobs at 2500 uM GlcN6P” value was 2.37e-05 ± 2.3e-05 s⁻¹. With A12C U49G A64G the “self-cleavage kobs at 2500 uM GlcN6P” value was 2.58e-05 ± 1.4e-05 s⁻¹. For A12U C16A C50A A64G, the “self-cleavage kobs at 2500 uM GlcN6P” value was 0.00283 ± 0.0027 s⁻¹. In the case of C8A C16U G38A, the “self-cleavage kobs at 2500 uM GlcN6P” value is reported as 3.48e-05 ± 3.2e-05 s⁻¹. For C11U C68G, the “self-cleavage kobs at 2500 uM GlcN6P” value was 2.16e-05 ± 1.8e-05 s⁻¹. In the case of C10U C11A U54G, the “self-cleavage kobs at 2500 uM GlcN6P” value is reported as 5.27e-05 ± 4.7e-05 s⁻¹. For G13U U54C U69C C70G, the “self-cleavage kobs at 2500 uM GlcN6P” value was 0.000561 ± 0.00036 s⁻¹. A12U G43U U46A was tested, and the “self-cleavage kobs at 2500 uM GlcN6P” value was 2.58e-05 ± 2.2e-05 s⁻¹. With C58U C70A the “self-cleavage kobs at 2500 uM GlcN6P” value was 2.52e-05 ± 1.5e-05 s⁻¹. In the case of C10A C16U C67G, the “self-cleavage kobs at 2500 uM GlcN6P” value is reported as 2.96e-05 ± 2.8e-05 s⁻¹. In the case of A12U A42G C68U, the “self-cleavage kobs at 2500 uM GlcN6P” value is reported as 0.0233 ± 0.02 s⁻¹. In the case of C10U G13A A53U U54A U55A C68G, the “self-cleavage kobs at 2500 uM GlcN6P” value is reported as 6.5e-05 ± 3.6e-05 s⁻¹. With A6G A52G the “self-cleavage kobs at 2500 uM GlcN6P” value was 2.63e-05 ± 1.4e-05 s⁻¹. In the case of G13U A33G C68G, the “self-cleavage kobs at 2500 uM GlcN6P” value is reported as 2.34e-05 ± 1.7e-05 s⁻¹. In the case of G13A A14G G29C C50G, the “self-cleavage kobs at 2500 uM GlcN6P” value is reported as 6.04e-05 ± 3.3e-05 s⁻¹. With A12U U49A the “self-cleavage kobs at 2500 uM GlcN6P” value was 3.07e-05 ± 1.9e-05 s⁻¹. For G13A U45C, the “self-cleavage kobs at 2500 uM GlcN6P” value was 3.37e-05 ± 1.8e-05 s⁻¹. U49A C50U C67A C68G C71A was tested, and the “self-cleavage kobs at 2500 uM GlcN6P” value was 3.82e-05 ± 3e-05 s⁻¹. A12U A15U U54G C58U was tested, and the “self-cleavage kobs at 2500 uM GlcN6P” value was 9.95e-05 ± 6e-05 s⁻¹. With C11G G29U C70U the “self-cleavage kobs at 2500 uM GlcN6P” value was 5.04e-05 ± 3.8e-05 s⁻¹. In the case of G9A U47G C50G U65G, the “self-cleavage kobs at 2500 uM GlcN6P” value is reported as 3.91e-05 ± 3.4e-05 s⁻¹. In the case of A12C A48C C68U C71G, the “self-cleavage kobs at 2500 uM GlcN6P” value is reported as 5.91e-05 ± 3.4e-05 s⁻¹.

Variants of: B1
Experiment: self-cleavage kobs at 640 uM GlcN6P; higher = faster cleavage; RNA array
Conditions: with glucosamine-6-phosphate
Method in brief: as §1
In the case of G63U U65A U69A, the “self-cleavage kobs at 640 uM GlcN6P” value is reported as 3.94e-05 ± 2.7e-05 s⁻¹. With C61A G62U C67G C68U the “self-cleavage kobs at 640 uM GlcN6P” value was 4.06e-05 ± 3.3e-05 s⁻¹. C61A G62C U69A was tested, and the “self-cleavage kobs at 640 uM GlcN6P” value was 3.15e-05 ± 2.6e-05 s⁻¹.

Variants of: B1
Experiment: self-cleavage kobs at 10000 uM GlcN6P; higher = faster cleavage; RNA array
Conditions: with glucosamine-6-phosphate
Method in brief: as §1
In the case of A12C G13U C67U, the “self-cleavage kobs at 10000 uM GlcN6P” value is reported as 2.47e-05 ± 1.6e-05 s⁻¹. G7A C68U was tested, and the “self-cleavage kobs at 10000 uM GlcN6P” value was 1.72e-05 ± 1.4e-05 s⁻¹. In the case of A12U U49A, the “self-cleavage kobs at 10000 uM GlcN6P” value is reported as 3.53e-05 ± 2.4e-05 s⁻¹. For U49A C50U C67A C68G C71A, the “self-cleavage kobs at 10000 uM GlcN6P” value was 1.87e-05 ± 1.8e-05 s⁻¹.
